# Taken from: PubChem BioAssay AID1159596 (NIAID, 2016)
# Screen: 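Genes whose silencing alters the TNF reporter response of macrophage-like cells to peptidoglycan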 (primary screen)
# System: human THP1 B5 monocytic reporter cells made macrophage-like with PMA
# Knock-down reagent: single siRNA against human genes
# Timing: assayed 48 to 72 hours after siRNA transfection; peptidoglycan stimulation lasted 4 hours
# Challenge: Staphylococcus aureus peptidoglycan for 4 hours; dose not given
# Detection: 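TNF-alpha promoter firefly/renilla luciferase ratio after 4 h s. aureus peptidoglycan; plate median/MAD scaled, robust z versus negative control wells, mean of replicates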
# Scale: TNF reporter z-score: higher = stronger TNF promoter reporter response to peptidoglycan
# Hit rule: In these data the active calls have TNF reporter z-score, replicate mean at about -1.5 or lower, or at about 1.5 or higher
# Meaning of the calls: active = reporter shifted beyond cut (either direction); inactive = reporter near control level
# This is a random part of 756 reagents. Of all reagents, 143 (19%) are marked active. 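Active means the reporter moved past about ±1.5 in either direction; scores are per single siRNA, not per gene; peptidoglycan dose not given.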 Reagents against one gene are numbered here. Not stated in the record: the amount of reagent.
target gene,siRNA no.,"TNF reporter z-score, replicate mean",Outcome
TBK1 (GeneID 29110),1,-0.862,inactive
TBK1 (GeneID 29110),2,-0.199,inactive
TBK1 (GeneID 29110),3,0.607,inactive
TBK1 (GeneID 29110),4,0.675,inactive
TBK1 (GeneID 29110),5,-1.06,inactive
TBK1 (GeneID 29110),6,-0.085,inactive
MAP3K7 (GeneID 6885),1,-2.18,active
MAP3K7 (GeneID 6885),2,-3.07,active
MAP3K7 (GeneID 6885),3,-4.16,active
MAP3K7 (GeneID 6885),4,-2.27,active
MAP3K7 (GeneID 6885),5,-3.65,active
MAP3K7 (GeneID 6885),6,-3.08,active
TANK (GeneID 10010),1,-0.163,inactive
TANK (GeneID 10010),2,1,inactive
TANK (GeneID 10010),3,-0.379,inactive
TANK (GeneID 10010),4,0.717,inactive
TANK (GeneID 10010),5,-1.9,active
TANK (GeneID 10010),6,-0.277,inactive
SIGIRR (GeneID 59307),1,-0.46,inactive
SIGIRR (GeneID 59307),2,0.451,inactive
SIGIRR (GeneID 59307),3,-1.08,inactive
SIGIRR (GeneID 59307),4,-0.159,inactive
SIGIRR (GeneID 59307),5,1.75,active
SIGIRR (GeneID 59307),6,-0.36,inactive
AKT3 (GeneID 10000),1,-0.259,inactive
AKT3 (GeneID 10000),2,0.117,inactive
AKT3 (GeneID 10000),3,0.576,inactive
AKT3 (GeneID 10000),4,-0.0889,inactive
AKT3 (GeneID 10000),5,-0.328,inactive
AKT3 (GeneID 10000),6,0.698,inactive
MAP2K4 (GeneID 6416),1,-1.03,inactive
MAP2K4 (GeneID 6416),2,-1.39,inactive
MAP2K4 (GeneID 6416),3,0.28,inactive
MAP2K4 (GeneID 6416),4,0.211,inactive
MAP2K4 (GeneID 6416),5,0.0574,inactive
MAP2K4 (GeneID 6416),6,-0.12,inactive
CYLD (GeneID 1540),1,-1.61,active
CYLD (GeneID 1540),2,-2.58,active
CYLD (GeneID 1540),3,-0.665,inactive
CYLD (GeneID 1540),4,-0.564,inactive
CYLD (GeneID 1540),5,-1.31,inactive
CYLD (GeneID 1540),6,-1.69,active
PELI1 (GeneID 57162),1,-0.774,inactive
PELI1 (GeneID 57162),2,0.127,inactive
PELI1 (GeneID 57162),3,0.0224,inactive
PELI1 (GeneID 57162),4,-1.67,active
PELI1 (GeneID 57162),5,-0.183,inactive
PELI1 (GeneID 57162),6,-0.972,inactive
MAPK9 (GeneID 5601),1,-0.733,inactive
MAPK9 (GeneID 5601),2,-0.204,inactive
MAPK9 (GeneID 5601),3,-0.315,inactive
MAPK9 (GeneID 5601),4,0.311,inactive
MAPK9 (GeneID 5601),5,-0.176,inactive
MAPK9 (GeneID 5601),6,0.0673,inactive
NFKBIA (GeneID 4792),1,-1.17,inactive
NFKBIA (GeneID 4792),2,0.161,inactive
NFKBIA (GeneID 4792),3,1.43,inactive
NFKBIA (GeneID 4792),4,-0.808,inactive
NFKBIA (GeneID 4792),5,-0.32,inactive
NFKBIA (GeneID 4792),6,-0.997,inactive
CXCL9 (GeneID 4283),1,-1.06,inactive
CXCL9 (GeneID 4283),2,-0.212,inactive
CXCL9 (GeneID 4283),3,-0.942,inactive
CXCL9 (GeneID 4283),4,-2.11,active
CXCL9 (GeneID 4283),5,-0.348,inactive
CXCL9 (GeneID 4283),6,0.437,inactive
MAP2K3 (GeneID 5606),1,-0.697,inactive
MAP2K3 (GeneID 5606),2,-1.19,inactive
MAP2K3 (GeneID 5606),3,-1.46,inactive
MAP2K3 (GeneID 5606),4,-2.72,active
MAP2K3 (GeneID 5606),5,-0.158,inactive
MAP2K3 (GeneID 5606),6,-3.59,active
EP300 (GeneID 2033),1,0.349,inactive
EP300 (GeneID 2033),2,0.508,inactive
EP300 (GeneID 2033),3,0.572,inactive
EP300 (GeneID 2033),4,1.12,inactive
EP300 (GeneID 2033),5,0.115,inactive
EP300 (GeneID 2033),6,0.814,inactive
IL1B (GeneID 3553),1,-0.721,inactive
IL1B (GeneID 3553),2,-0.592,inactive
IL1B (GeneID 3553),3,0.103,inactive
IL1B (GeneID 3553),4,-1.09,inactive
IL1B (GeneID 3553),5,-2.03,active
IL1B (GeneID 3553),6,-0.783,inactive
MAPK10 (GeneID 5602),1,-0.954,inactive
MAPK10 (GeneID 5602),2,0.285,inactive
MAPK10 (GeneID 5602),3,-0.565,inactive
MAPK10 (GeneID 5602),4,0.135,inactive
MAPK10 (GeneID 5602),5,0.671,inactive
MAPK10 (GeneID 5602),6,0.174,inactive
MAPK11 (GeneID 5600),1,-0.414,inactive
MAPK11 (GeneID 5600),2,-0.628,inactive
MAPK11 (GeneID 5600),3,-0.136,inactive
MAPK11 (GeneID 5600),4,0.0296,inactive
MAPK11 (GeneID 5600),5,0.0829,inactive
MAPK11 (GeneID 5600),6,-0.747,inactive
IRAK2 (GeneID 3656),1,-0.633,inactive
IRAK2 (GeneID 3656),2,1.09,inactive
IRAK2 (GeneID 3656),3,0.549,inactive
IRAK2 (GeneID 3656),4,0.0419,inactive
IRAK2 (GeneID 3656),5,-2.45,active
IRAK2 (GeneID 3656),6,0.956,inactive
EGR2 (GeneID 1959),1,-0.953,inactive
EGR2 (GeneID 1959),2,0.218,inactive
EGR2 (GeneID 1959),3,-0.783,inactive
EGR2 (GeneID 1959),4,-0.763,inactive
EGR2 (GeneID 1959),5,-0.264,inactive
EGR2 (GeneID 1959),6,-1.61,active
TLR3 (GeneID 7098),1,0.272,inactive
TLR3 (GeneID 7098),2,-0.557,inactive
TLR3 (GeneID 7098),3,-0.567,inactive
TLR3 (GeneID 7098),4,-1.53,active
TLR3 (GeneID 7098),5,0.0386,inactive
TLR3 (GeneID 7098),6,0.217,inactive

Not a retest: an excerpt of the list.
target gene,siRNA no.,"TNF reporter z-score, replicate mean",Outcome
TANK (GeneID 10010),2,1,inactive
TANK (GeneID 10010),3,-0.379,inactive
TANK (GeneID 10010),4,0.717,inactive
TANK (GeneID 10010),5,-1.9,active
TANK (GeneID 10010),6,-0.277,inactive
SIGIRR (GeneID 59307),1,-0.46,inactive
SIGIRR (GeneID 59307),2,0.451,inactive
SIGIRR (GeneID 59307),3,-1.08,inactive
SIGIRR (GeneID 59307),4,-0.159,inactive
SIGIRR (GeneID 59307),5,1.75,active
SIGIRR (GeneID 59307),6,-0.36,inactive
AKT3 (GeneID 10000),1,-0.259,inactive
AKT3 (GeneID 10000),2,0.117,inactive
AKT3 (GeneID 10000),3,0.576,inactive
AKT3 (GeneID 10000),4,-0.0889,inactive
AKT3 (GeneID 10000),5,-0.328,inactive
